Measurements reported in paper doi:10.1101/2022.01.13.476189.

The chains behind the UniProt entries cited, without tags or fusion partners. Where a name states a change or a piece, a line headed by the entry shows the natural chain unless it says otherwise.
UniProt P07213: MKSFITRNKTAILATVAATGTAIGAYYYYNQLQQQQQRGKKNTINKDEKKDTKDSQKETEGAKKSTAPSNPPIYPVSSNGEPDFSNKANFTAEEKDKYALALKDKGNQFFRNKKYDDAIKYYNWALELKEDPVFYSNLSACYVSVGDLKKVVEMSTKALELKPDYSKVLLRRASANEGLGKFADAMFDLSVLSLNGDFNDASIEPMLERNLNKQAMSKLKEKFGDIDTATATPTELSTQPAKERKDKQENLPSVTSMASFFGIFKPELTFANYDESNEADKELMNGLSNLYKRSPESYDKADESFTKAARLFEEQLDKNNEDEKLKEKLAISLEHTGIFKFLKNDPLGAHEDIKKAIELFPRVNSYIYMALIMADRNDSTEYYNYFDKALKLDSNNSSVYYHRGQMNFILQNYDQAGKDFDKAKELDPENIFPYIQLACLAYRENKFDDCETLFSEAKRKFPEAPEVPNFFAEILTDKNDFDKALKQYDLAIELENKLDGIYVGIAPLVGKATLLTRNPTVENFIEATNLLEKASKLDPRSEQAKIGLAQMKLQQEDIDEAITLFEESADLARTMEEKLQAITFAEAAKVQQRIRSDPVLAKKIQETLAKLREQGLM
UniProt Q9BXM7: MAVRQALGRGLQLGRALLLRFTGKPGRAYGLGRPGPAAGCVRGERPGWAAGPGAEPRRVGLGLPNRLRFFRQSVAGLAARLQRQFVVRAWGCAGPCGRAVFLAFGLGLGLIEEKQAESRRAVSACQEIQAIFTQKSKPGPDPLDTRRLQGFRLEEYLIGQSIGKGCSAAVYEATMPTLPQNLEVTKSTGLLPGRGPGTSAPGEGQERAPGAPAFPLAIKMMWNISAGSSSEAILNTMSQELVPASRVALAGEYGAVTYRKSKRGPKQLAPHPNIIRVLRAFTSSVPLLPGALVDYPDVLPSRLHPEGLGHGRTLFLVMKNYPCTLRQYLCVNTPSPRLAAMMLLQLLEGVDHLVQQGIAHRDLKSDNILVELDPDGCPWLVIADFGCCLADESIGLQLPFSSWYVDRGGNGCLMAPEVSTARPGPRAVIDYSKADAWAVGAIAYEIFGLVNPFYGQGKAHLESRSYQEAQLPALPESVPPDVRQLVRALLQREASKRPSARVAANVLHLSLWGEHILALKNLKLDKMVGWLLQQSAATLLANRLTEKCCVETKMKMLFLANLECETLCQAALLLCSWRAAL

Target: GST-Tom70 (cytosolic domain) (yeast) (UniProt P07213)
Assay: pull-down

Substance | binding
PINK1(35-120)-eGFP, radiolabeled (from UniProt Q9BXM7 35-120) (domain or fragment) | binds
PINK1(1-120)-eGFP, radiolabeled (from UniProt Q9BXM7 1-120) (domain or fragment) | binds
PINK1 (human), radiolabeled (from UniProt Q9BXM7 1-581) | binds

No constants are given. Whether binding was seen depends on the method and setting. Binding seen in cells or lysates may run through a third protein. A result given as binding can be weak or reduced; the word gives no strength.
